Screening data, single-dose tests

Sequences of proteins named here, by UniProt entry; tags and fusion partners are left off. Residues count along the entry.
UniProt I6X8D2, whole entry: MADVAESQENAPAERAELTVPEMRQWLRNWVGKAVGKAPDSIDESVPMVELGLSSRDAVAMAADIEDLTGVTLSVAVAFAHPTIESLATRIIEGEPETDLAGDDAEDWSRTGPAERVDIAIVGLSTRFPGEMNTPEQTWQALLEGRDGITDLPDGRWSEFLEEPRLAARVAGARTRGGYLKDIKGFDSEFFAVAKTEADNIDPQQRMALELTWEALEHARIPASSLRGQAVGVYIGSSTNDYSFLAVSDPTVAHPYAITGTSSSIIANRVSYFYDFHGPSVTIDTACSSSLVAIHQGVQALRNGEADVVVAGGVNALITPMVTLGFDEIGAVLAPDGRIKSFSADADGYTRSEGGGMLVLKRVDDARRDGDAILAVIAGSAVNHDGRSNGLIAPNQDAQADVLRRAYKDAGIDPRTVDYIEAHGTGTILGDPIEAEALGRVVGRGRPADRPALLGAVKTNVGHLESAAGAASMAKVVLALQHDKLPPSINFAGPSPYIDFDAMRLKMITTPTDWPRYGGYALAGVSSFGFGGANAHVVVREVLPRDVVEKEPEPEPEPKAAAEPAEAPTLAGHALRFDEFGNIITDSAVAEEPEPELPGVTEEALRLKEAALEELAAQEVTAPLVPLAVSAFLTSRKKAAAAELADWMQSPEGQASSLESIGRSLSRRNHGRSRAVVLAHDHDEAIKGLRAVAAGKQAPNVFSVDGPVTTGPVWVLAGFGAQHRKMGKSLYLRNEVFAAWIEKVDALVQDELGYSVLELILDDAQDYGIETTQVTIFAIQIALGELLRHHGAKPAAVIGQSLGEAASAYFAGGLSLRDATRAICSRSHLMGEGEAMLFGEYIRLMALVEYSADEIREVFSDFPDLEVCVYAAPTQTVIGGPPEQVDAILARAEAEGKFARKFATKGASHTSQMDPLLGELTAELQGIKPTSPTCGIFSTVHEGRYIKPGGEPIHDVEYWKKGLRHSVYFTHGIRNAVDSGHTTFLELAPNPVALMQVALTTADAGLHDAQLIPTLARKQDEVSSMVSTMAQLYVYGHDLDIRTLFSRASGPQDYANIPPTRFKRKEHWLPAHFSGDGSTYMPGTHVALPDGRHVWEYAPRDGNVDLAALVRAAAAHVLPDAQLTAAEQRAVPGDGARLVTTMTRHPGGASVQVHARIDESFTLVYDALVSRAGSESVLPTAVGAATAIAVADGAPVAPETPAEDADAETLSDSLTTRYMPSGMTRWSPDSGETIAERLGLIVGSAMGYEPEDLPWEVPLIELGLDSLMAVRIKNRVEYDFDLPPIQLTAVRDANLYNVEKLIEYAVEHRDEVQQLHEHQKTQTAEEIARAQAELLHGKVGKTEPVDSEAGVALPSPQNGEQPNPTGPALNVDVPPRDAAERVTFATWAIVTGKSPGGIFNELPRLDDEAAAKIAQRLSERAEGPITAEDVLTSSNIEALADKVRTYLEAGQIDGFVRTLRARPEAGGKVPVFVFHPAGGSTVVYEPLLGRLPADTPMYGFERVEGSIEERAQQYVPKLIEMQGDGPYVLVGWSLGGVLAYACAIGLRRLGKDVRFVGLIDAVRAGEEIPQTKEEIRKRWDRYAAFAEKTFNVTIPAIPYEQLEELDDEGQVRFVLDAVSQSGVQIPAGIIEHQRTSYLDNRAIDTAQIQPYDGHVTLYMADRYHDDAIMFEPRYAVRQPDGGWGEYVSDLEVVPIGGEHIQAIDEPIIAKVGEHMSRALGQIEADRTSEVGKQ
UniProt Q8IDJ8, 1-583: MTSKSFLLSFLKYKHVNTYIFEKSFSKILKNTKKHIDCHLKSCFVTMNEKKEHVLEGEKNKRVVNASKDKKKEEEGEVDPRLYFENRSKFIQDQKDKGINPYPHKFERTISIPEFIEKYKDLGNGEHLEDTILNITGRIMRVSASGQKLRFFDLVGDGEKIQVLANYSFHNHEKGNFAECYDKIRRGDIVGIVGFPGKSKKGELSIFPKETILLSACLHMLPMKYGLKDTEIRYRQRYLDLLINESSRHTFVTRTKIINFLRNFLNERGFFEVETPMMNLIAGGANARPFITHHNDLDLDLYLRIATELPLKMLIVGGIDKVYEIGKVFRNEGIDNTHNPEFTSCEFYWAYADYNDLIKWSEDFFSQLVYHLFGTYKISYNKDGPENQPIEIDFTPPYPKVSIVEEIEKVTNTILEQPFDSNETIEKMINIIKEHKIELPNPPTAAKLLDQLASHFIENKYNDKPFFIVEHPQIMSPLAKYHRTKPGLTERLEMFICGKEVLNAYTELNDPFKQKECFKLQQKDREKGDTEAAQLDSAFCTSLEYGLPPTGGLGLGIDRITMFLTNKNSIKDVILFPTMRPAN
UniProt P9WNZ1, whole entry: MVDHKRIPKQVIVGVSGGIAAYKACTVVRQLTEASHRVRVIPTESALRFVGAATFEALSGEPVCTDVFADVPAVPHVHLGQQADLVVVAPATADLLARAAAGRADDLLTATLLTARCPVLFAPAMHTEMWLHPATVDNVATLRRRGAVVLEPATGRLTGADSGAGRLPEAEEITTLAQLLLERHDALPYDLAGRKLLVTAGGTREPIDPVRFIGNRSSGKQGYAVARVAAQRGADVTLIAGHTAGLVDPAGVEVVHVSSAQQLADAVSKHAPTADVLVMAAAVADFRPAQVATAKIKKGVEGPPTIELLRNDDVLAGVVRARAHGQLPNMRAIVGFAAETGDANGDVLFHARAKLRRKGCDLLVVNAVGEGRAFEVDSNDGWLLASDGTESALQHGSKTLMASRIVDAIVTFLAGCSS

Source: ChEMBL document CHEMBL3988442, “University of Dundee, Small-Polar-MMV Screening Library” (2021).

Toxoplasma: 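Assay of Toxoplasma gondii numbers, read through their beta-galactosidase reporter with a colour substrate. Compounds at 10 µM. The record gives no direction; the compounds picked for IC50 retests had high values, so higher reads as fewer parasites. Size under these conditions: about 67,000 compounds, about 260 of them at 50% or above in at least one test.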
Pks13 thioesterase: 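Enzyme assay of the thioesterase domain of polyketide synthase 13; the read-out is not stated. Target: Polyketide synthase Pks13, Mycobacterium tuberculosis (UniProt I6X8D2). Tested at 30 µM. Higher reads as stronger inhibition (inferred from which compounds were picked for retests). About 67,000 compounds were tested under these conditions; 0.46% (about 300) showed 50% or more at least once.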
PfKRS1: 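Lysine-tRNA ligase, Plasmodium falciparum 3D7 (UniProt Q8IDJ8). Enzyme assay of the cytosolic lysyl-tRNA synthetase in 384-well plates, read by luminescence. Tested at 30 µM. Direction is inferred from only a few compounds that gave an IC50; most scored high, so higher reads as stronger inhibition. Size under these conditions: about 69,000 compounds, about 49 of them at 50% or above in at least one test.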
CoaBC: 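Enzyme assay of CoaBC with a phosphate dye (Biomol Green) read at 650 nm. Target: Coenzyme A biosynthesis protein CoaBC, Mycobacterium tuberculosis (UniProt P9WNZ1). Compounds at 30 µM. Direction is inferred from only a few compounds that gave an IC50; most scored high, so higher reads as stronger inhibition. Most strong results did not repeat in a second test. About 67,000 compounds were tested under these conditions; 0.06% (about 40) showed 50% or more at least once.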

Each number is a percent effect as filed. The controls that fix the scale are not given in the record; negative values are as filed. The compounds are a random part of those screened.

For O=C(O)C(F)(F)F.[H][C@@]12COC[C@]1(CNC(=O)C1CC1)CN(Cc1cccc(C)c1)C2 the result was Toxoplasma: 7.715%.
For CN1CCCN(Cn2nc(-c3ccccc3F)ccc2=O)CC1 the result was Toxoplasma: 9.343%; Pks13 thioesterase: -12.28%; PfKRS1: 2.722%; CoaBC: 0.2421%.
For Cc1ccc(C(N)=O)c(N2Cc3cnc(C(C)(C)C)nc3C2)n1 the result was Toxoplasma: 3.155%; Pks13 thioesterase: -5.963%; PfKRS1: 6.576%; CoaBC: 5.66%.
For Cc1cccc(N2CCN(C(=O)CNCCn3cc(C)cn3)CC2)c1 the result was Toxoplasma: -4.893%; Pks13 thioesterase: -8.397%; PfKRS1: 0.4148%; CoaBC: 8.549%.
For CNc1ccnc(NCCC(=O)Nc2ccccc2OC)n1 the result was Toxoplasma: -5.464%; Pks13 thioesterase: -20.92%; PfKRS1: 0.7077%; CoaBC: -2.814%.
For O=C(NC1COC2(CCN(CC3CCC3)CC2)C1)c1ccccn1.O=C(O)C(F)(F)F (stereo not shown) the result was Toxoplasma: -6.546%.
For COCC(C)NC(=O)c1nnn(-c2ccc(OC)cc2)n1 (stereo not shown) the result was Toxoplasma: -8.451%; Pks13 thioesterase: 5.945%; PfKRS1: 0.5726%; CoaBC: 8.824%.
For c1ccc(Cc2noc(CN3CCCCC3Cn3cncn3)n2)cc1 (stereo not shown) the result was Toxoplasma: 18.71%; Pks13 thioesterase: -19.36%; PfKRS1: 1.421%; CoaBC: -0.6337%.
For OCCC1CN(c2nc(-c3cccnc3)nc3c2CCNCC3)CCO1 (stereo not shown) the result was Toxoplasma: -6.789%; Pks13 thioesterase: -9.4%; PfKRS1: 2.383%; CoaBC: -1.091%.
For [H][C@@]12C[C@@H](c3nc(C)no3)CN(S(=O)(=O)CC)[C@]1([H])CCO2 the result was Toxoplasma: -18%.
For O=C(C(CNCc1ccncc1)c1ccccc1)N1CCOCC1 (stereo not shown) the result was Toxoplasma: -3.621%; Pks13 thioesterase: -1.691%; PfKRS1: 0.1532%; CoaBC: 1.364%.
For CC(C)c1ncc(CN2CCCC(CO)C2)cn1 (stereo not shown) the result was Toxoplasma: 1.217%; Pks13 thioesterase: -38.15%; PfKRS1: 2.939%; CoaBC: 1.389%.
For Cc1nn(C)c(C)c1C1CCCN1C(=O)CCc1cscn1 (stereo not shown) the result was Toxoplasma: -0.6905%; Pks13 thioesterase: -9.147%; PfKRS1: 0.7899%; CoaBC: 7.513%.
For Cc1ccc(N2CCCC(N(C)Cc3ccccn3)C2)nn1 (stereo not shown) the result was Pks13 thioesterase: -2.92%; PfKRS1: -0.2205%; CoaBC: 4.059%.
For Cn1cc(NC(=O)N2CCC2c2ccccc2)ccc1=O (stereo not shown) the result was Toxoplasma: 24.1%; Pks13 thioesterase: -3.989%; PfKRS1: 20.07%; CoaBC: 8.158%.
For O=C(O)C(F)(F)F.O=C(O)C(F)(F)F.O=C(c1cscn1)N1CCC2(CN(Cc3ccncc3)C2)C1 the result was Toxoplasma: 13.17%.
For Cc1cccc(CO[C@@H]2CC[C@H]3[C@H]2OCCN3Cc2ccsc2)n1 the result was Pks13 thioesterase: -7.585%; PfKRS1: -1.898%; CoaBC: 6.218%.
For Cc1nnsc1CN1CC[C@@](O)(C2CCC2)[C@H](C)C1 the result was Toxoplasma: 10.12%; Pks13 thioesterase: -5.33%; PfKRS1: 5.197%; CoaBC: 1.595%.
For Cc1nc(C)c2c(n1)CCN(Cc1ccsc1)CC2 the result was Toxoplasma: -5.996%; Pks13 thioesterase: -26.84%; PfKRS1: 4.427%; CoaBC: 4.673%.
For CN(c1cccnn1)[C@@H]1CC[C@@H]2CN(Cc3ccccc3C(=O)O)C[C@@H]21 the result was Pks13 thioesterase: -3.245%; PfKRS1: 3.524%; CoaBC: -2.466%.

Once more, the final 2:

Cc1nc(C)c2c(n1)CCN(Cc1ccsc1)CC2 gave Toxoplasma: -5.996%; Pks13 thioesterase: -26.84%; PfKRS1: 4.427%; CoaBC: 4.673%.
CN(c1cccnn1)[C@@H]1CC[C@@H]2CN(Cc3ccccc3C(=O)O)C[C@@H]21 gave Pks13 thioesterase: -3.245%; PfKRS1: 3.524%; CoaBC: -2.466%.